Assay results as given in publication PMC7190641.

Chains of the proteins cited; added tags and fusions are not shown. Lines headed by an entry give the natural chain unless they say otherwise; changes in a name come on top.
UniProt G5EG87: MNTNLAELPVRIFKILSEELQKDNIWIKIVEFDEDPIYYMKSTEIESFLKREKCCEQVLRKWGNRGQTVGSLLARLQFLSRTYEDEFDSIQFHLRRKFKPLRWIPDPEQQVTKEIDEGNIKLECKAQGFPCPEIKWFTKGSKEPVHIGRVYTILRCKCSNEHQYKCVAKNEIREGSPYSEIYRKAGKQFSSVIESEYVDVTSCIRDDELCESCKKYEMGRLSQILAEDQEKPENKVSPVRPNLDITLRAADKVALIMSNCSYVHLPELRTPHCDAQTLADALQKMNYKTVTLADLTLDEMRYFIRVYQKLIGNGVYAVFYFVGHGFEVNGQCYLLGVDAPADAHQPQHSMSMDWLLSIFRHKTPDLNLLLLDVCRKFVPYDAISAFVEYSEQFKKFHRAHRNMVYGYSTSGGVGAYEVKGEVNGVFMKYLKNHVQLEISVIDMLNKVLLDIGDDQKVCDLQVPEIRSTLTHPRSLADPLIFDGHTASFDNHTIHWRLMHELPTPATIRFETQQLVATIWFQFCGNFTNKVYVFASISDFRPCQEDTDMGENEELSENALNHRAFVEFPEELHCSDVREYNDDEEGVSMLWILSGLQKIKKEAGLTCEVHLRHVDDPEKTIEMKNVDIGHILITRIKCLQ
UniProt P34545: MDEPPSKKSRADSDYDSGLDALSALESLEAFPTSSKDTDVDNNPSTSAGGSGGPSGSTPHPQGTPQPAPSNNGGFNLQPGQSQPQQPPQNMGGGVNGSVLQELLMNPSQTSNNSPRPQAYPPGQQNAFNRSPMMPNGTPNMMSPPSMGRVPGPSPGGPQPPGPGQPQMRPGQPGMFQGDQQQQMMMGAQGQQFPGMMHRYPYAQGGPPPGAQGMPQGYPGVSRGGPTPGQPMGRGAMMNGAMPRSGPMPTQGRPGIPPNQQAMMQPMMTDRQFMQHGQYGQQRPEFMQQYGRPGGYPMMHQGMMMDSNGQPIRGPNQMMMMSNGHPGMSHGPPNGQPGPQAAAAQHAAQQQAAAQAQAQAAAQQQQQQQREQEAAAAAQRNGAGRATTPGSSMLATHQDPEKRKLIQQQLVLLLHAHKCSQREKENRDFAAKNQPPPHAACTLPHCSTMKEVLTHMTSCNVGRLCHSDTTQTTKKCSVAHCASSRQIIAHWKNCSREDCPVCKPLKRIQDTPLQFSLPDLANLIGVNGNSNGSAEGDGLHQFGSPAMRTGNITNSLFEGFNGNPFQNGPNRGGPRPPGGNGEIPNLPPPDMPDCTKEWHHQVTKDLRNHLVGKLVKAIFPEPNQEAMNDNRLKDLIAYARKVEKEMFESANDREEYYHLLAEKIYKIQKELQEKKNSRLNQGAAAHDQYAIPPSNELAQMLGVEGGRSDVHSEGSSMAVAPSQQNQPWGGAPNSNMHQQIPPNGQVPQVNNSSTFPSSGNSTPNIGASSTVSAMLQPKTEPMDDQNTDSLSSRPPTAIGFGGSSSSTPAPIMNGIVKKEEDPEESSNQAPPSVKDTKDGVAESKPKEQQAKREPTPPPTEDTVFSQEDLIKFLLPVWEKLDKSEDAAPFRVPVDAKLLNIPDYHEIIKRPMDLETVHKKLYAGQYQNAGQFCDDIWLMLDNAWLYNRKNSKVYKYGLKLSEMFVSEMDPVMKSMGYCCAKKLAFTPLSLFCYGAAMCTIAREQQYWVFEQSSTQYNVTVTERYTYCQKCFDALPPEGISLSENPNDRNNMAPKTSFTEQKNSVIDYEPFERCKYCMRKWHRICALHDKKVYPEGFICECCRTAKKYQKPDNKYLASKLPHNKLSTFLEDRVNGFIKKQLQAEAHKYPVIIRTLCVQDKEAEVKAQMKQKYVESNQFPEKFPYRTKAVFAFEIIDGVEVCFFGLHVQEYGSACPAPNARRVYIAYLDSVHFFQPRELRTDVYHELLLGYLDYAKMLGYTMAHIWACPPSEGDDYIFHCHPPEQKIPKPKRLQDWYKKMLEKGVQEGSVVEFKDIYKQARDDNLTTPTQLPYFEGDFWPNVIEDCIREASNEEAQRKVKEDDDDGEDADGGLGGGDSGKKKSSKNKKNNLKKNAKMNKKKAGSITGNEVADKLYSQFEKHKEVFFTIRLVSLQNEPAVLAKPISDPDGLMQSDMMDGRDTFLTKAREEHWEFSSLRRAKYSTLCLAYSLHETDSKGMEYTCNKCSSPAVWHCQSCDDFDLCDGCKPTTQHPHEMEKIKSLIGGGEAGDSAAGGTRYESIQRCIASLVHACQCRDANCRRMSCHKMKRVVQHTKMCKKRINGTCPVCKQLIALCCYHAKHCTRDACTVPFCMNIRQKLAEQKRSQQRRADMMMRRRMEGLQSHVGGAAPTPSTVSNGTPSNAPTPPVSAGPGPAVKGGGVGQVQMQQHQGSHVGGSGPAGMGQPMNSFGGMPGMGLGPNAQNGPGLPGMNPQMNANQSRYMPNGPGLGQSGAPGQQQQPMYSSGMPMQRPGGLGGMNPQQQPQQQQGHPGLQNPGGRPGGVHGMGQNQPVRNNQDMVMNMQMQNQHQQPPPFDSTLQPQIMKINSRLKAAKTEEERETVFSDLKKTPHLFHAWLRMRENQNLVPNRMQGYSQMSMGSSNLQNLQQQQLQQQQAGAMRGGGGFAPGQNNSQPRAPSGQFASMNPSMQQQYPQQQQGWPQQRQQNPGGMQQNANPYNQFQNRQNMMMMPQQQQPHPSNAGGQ

T1: NFKI-1::GFP (integrated nfki-1::gfp transgene) (C. elegans) (UniProt G5EDE9)
T1 sequence: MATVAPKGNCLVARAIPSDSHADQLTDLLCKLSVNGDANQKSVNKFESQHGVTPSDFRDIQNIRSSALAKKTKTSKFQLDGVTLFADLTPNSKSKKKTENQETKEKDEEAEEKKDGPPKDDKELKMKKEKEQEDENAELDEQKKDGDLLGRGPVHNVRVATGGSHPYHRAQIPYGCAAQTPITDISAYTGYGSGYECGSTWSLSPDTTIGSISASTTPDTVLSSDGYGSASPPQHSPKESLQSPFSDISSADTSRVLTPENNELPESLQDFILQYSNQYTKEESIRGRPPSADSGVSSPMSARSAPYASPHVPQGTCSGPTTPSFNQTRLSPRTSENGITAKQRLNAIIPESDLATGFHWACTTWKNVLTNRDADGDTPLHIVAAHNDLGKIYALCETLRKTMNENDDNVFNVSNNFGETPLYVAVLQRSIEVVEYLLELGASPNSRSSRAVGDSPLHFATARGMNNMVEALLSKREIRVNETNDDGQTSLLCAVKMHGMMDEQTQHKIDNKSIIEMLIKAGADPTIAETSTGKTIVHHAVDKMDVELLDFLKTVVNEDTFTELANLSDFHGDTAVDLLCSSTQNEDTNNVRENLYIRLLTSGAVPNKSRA

T2: ACTL-1-FLAG (endogenous ACTL-1 tagged with a FLAG epitope) (C. elegans) (UniProt Q18008)
T2 sequence: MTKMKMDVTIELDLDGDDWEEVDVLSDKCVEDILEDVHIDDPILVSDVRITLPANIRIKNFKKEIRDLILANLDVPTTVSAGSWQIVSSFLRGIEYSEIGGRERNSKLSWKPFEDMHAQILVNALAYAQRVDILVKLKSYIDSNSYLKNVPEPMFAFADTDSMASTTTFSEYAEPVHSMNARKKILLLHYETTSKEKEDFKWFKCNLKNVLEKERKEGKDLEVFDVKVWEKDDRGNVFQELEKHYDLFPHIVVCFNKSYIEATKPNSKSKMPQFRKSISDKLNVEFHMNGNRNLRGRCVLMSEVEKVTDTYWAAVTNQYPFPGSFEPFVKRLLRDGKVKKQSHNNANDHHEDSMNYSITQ

T3: PIK-1-Myc (endogenous PIK-1 tagged with a Myc epitope) (C. elegans) (UniProt G5ECP4)
T3 sequence: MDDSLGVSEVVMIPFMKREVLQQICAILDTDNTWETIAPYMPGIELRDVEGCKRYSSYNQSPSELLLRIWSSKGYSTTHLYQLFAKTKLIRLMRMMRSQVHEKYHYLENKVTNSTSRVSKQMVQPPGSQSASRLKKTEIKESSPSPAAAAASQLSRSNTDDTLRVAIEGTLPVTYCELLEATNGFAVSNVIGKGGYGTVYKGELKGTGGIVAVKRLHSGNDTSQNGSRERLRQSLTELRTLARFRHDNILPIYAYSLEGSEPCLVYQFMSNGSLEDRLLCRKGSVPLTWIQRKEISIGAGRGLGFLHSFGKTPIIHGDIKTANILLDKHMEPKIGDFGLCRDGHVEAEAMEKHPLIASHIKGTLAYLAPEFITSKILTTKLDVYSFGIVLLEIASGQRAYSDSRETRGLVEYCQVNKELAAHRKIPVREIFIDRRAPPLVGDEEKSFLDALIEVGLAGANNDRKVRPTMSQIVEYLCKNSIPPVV

B1: PIK-1 (endogenous, C. elegans extract) (protein, UniProt G5ECP4 1-485)
chain: T3 sequence
B2: ACTL-1 (endogenous, C. elegans extract) (protein, UniProt Q18008 1-360)
chain: T2 sequence

What was measured:
Experiment in all cases: affinity purification with mass spectrometry; IP of epitope-tagged bait from clarified C. elegans extract (lysis buffer A: 50 mM HEPES pH 7.4, 100 mM KCl, 0.05% NP40, 10% glycerol) with GFP-Trap MA, Myc-Trap MA or anti-FLAG M2 magnetic beads, 3-4 h at 4 °C; SDS-PAGE, LC-MS/MS, total spectral counts; controls: unrelated proteins with the same epitopes
[1] = biological target: T1, NFKI-1::GFP (integrated nfki-1::gfp transgene) (C. elegans)
[2] = biological target: T2, ACTL-1-FLAG (endogenous ACTL-1 tagged with a FLAG epitope) (C. elegans)
[3] = biological target: MALT-1::GFP (GFP-tagged MALT-1 expressed pan-neuronally) (C. elegans) (UniProt G5EG87)
[4] = biological target: T1, NFKI-1::GFP (integrated nfki-1::gfp transgene) (C. elegans); remark: listed apart in the source
[5] = biological target: T3, PIK-1-Myc (endogenous PIK-1 tagged with a Myc epitope) (C. elegans)

| Molecule | binding [1] | binding [2] | binding [3] | binding [4] | binding [5] |
| --- | --- | --- | --- | --- | --- |
| CREB binding protein (CBP), cbp-1 (from UniProt P34545 1-2017) | binds | – | – | – | – |
| B1 | – | binds | binds | – | – |
| B2 | – | – | binds | binds | binds |

Where two headings read alike, the source gives them in different places. No constants are given. Whether binding was seen depends on the method and setting. Binding seen in cells or lysates may run through a third protein. Here binding means that the protein was enriched with, or labelled near, the bait; the list need not be complete. For part of these data: Where a sequence is shown, tags or fusion partners need not be part of it.
